# Primary screen of a compound library

Amino acid sequences for entries named in this document (tags omitted). Residues count along the entry.
UniProt Q8IDJ8, 1-583: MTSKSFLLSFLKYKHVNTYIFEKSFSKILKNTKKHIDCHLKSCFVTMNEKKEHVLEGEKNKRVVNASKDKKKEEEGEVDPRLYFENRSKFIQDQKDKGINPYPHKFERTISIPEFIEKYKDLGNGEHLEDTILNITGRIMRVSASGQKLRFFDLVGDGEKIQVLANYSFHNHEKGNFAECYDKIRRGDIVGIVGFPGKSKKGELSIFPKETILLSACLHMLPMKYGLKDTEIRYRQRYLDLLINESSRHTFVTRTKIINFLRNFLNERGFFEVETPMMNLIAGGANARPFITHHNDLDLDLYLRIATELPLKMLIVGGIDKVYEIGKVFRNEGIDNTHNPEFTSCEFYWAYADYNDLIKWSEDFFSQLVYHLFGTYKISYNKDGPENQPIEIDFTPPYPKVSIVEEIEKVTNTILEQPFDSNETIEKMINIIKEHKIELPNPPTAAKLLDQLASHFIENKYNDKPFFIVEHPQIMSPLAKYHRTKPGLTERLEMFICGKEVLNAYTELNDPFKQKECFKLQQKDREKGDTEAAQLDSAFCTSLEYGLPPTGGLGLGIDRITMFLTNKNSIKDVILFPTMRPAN
UniProt P9WPC5, whole entry: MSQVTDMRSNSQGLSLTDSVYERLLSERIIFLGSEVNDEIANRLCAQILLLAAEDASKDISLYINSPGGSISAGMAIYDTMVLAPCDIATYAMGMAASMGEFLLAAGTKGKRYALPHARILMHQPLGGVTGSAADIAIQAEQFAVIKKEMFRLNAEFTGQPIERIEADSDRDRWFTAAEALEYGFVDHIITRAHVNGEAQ
UniProt P9WPC3, whole entry partner: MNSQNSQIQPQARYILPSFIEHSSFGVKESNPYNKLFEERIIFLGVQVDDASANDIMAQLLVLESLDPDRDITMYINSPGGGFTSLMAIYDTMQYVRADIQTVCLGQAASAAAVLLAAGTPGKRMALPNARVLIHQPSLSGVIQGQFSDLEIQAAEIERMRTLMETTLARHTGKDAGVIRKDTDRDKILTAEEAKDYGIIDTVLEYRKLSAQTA

Measurements from “University of Dundee, Small-Polar-MMV Screening Library” (2021), ChEMBL document CHEMBL3988442.

PfKRS1: 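Lysine-tRNA ligase, Plasmodium falciparum 3D7 (UniProt Q8IDJ8). Enzyme assay of the cytosolic lysyl-tRNA synthetase in 384-well plates, read by luminescence. Tested at 30 µM. Direction is inferred from only a few compounds that gave an IC50; most scored high, so higher reads as stronger inhibition. Size under these conditions: about 69,000 compounds, about 49 of them at 50% or above in at least one test.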
ClpP1P2: 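ClpP1P2, Mycobacterium tuberculosis (UniProt P9WPC5 and UniProt P9WPC3). Protease assay of ClpP1P2, read by the AMC dye that it sets free. Tested at 50 µM. Direction is inferred from only a few compounds that gave an IC50; most scored high, so higher reads as stronger inhibition. Most other retested compounds had strongly negative values. Size under these conditions: about 69,000 compounds, about 10 of them at 50% or above in at least one test.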

Results are given as percent effect. The controls that fix the scale are not given in the record; negative values are as filed. This is an unselected part of the compounds tested.

SMILES	PfKRS1	ClpP1P2
COCC(=O)N1CCC2(CCc3ccc(F)cc32)CC1	3.565%	-7.376%
Cc1ncc(CN(C)C(=O)Nc2cccc(N3CCNC3=O)c2)s1	1.217%	-0.4201%
CC(C)n1nc2c(cc1=O)CN(CCOc1ccccc1C#N)CC2	6.043%	-12.3%
Cc1c(C(=O)N[C@@H]2CC[C@@H](N3CCCC3)[C@@H]2O)[nH]c2ccc(F)cc12	-1.162%	-15.26%
CSc1ccc(NCC(=O)NCC2CC2)cc1F	1.042%	-1.909%
CNC(=O)[C@@]12CCO[C@@H]1CCN(S(=O)(=O)c1ccccc1F)C2	-0.9104%	-2.507%
CC(C)(C)n1cc(C2=CCN(CCNC(N)=O)CC2)cn1	0.3313%	-7.875%
Cc1cc(C2CCCN(S(=O)(=O)N(C)C)C2)ccn1 (stereo not shown)	-1.101%	5.276%
Cc1cccc(CN2CCN(C(=O)c3cccnc3O)CC2)c1	5.838%	-5.377%
Cc1nc(C2CCCN(C(=O)c3ccncc3)C2)c2sccn12 (stereo not shown)	1.242%	21.88%
CC[C@H]1COCCN1C(=O)c1cnc(N2CCN(C)CC2)nc1C	7.884%	-1.023%
Cc1cccc(COc2ccc(C(C)NS(N)(=O)=O)cc2)c1 (stereo not shown)	4.837%	-22.08%
Cc1cc(N2CCC(O)CC2)nc(C)n1	8.579%	-10.76%
COc1cccc(CNC(=O)C(c2cccc(F)c2)N2CCOCC2)c1 (stereo not shown)	9.089%	-7.035%
O=C(Cc1ccc2c(c1)OCCO2)N1CCCC(n2cncn2)C1 (stereo not shown)	7.063%	1.916%
CS(=O)(=O)N1CCCC12CCCN(C(=O)c1ccno1)C2 (stereo not shown)	5.633%	0.7688%
c1cc(CN2CCC(CCn3cccn3)CC2)cc(Cn2cccn2)c1	8.151%	1.638%
COc1ccc(OCCN(C)C(=O)NC(C)c2nncn2C)cc1 (stereo not shown)	3.697%	5.948%
O=C1CCCN1Cc1noc(-c2ccc(Cl)cc2)n1	8.357%	-5.678%
c1cncc(-c2ccc3c(c2)CCC32CCN(Cc3nccs3)CC2)c1	2.8%	4.337%
Cc1ccc(C(=O)NCCCNS(C)(=O)=O)cc1-n1cccc1	8.416%	2.748%
COCc1ccc(C(=O)N(CCC#N)Cc2ccccn2)cc1	0.4346%	3.03%
Cc1cnn(CC(C)NCc2csc(-c3ncccn3)n2)c1 (stereo not shown)	-1.446%	-8.168%
O=C(CC1COCCN1S(=O)(=O)c1ccccc1)NCc1ccccn1 (stereo not shown)	2.879%	-4.032%
Cc1cccnc1CN1CCOC(Cc2cccc3ccccc23)C1 (stereo not shown)	2.935%	-34.53%
COc1ccccc1[C@@H]1CN(C(=O)c2csc(C)n2)C[C@H]1C(=O)O	5.312%	0.8627%
Cc1ccc(N2CCCC(NC(=O)Cc3csc(C)n3)C2=O)cc1 (stereo not shown)	3.196%	5.104%
CCCc1n[nH]c(=O)n1[C@@H](CC)c1ccccc1	-2.471%	-2.335%
CC(=O)N1CCCC(c2ccc(Br)cn2)C1 (stereo not shown)	2.472%	3.541%
O=S(=O)(c1ccc(Cl)cc1)N1C[C@@H]2CCN[C@@H]2C1	1.835%	-12.25%
COCC(=O)N1Cc2cn(C)nc2C(COc2cccnc2)C1 (stereo not shown)	-5.064%	8.871%
c1coc(CN2CCO[C@H]3[C@H](OCC4CC4)CC[C@@H]32)c1	2.666%	-2.507%
CC(=O)N1CCC(C(=O)Nc2nc(C3CC3)cs2)CC1	-5.048%	-1.479%
CN(C)S(=O)(=O)N1CC(c2ccnc(Nc3ccccn3)n2)C1	0.02102%	1.656%
c1ccc(C2CN(C3CC3)CC3(CCN(Cc4ncc[nH]4)CC3)C2)cc1 (stereo not shown)	3.788%	-8.45%
O=C(NCCOc1ncc(Cl)cc1Cl)c1ccncc1	4.733%	-5.207%
CCN(CC1CCOC1)C(=O)Nc1ccc(-n2cncn2)nc1 (stereo not shown)	-3.141%	10.4%
CN(C)C(CNC(=O)c1cccc(-n2cnnn2)c1)c1ccccc1Cl (stereo not shown)	3.489%	-9.17%
COc1cc(C)nc(N2CCN(C(=O)COCC(F)(F)F)CC2)n1	2.508%	4.701%
COc1cc(C(=O)N2CC3(CCNCC3)c3cc(Cl)ccc32)ccn1	1.204%	-0.3631%
NC(=O)CCSCc1ccc(Br)c(F)c1	0.7993%	-0.2734%
O=C(Cc1cccs1)N1CCc2nnc(COc3cncnc3)n2CC1	3.924%	1.356%
CC(C)n1cnc2c1C(C(=O)NCCO)N(Cc1ccccc1)CC2 (stereo not shown)	3.302%	-2.413%
Cc1cc(CN2CCC(c3nccn3C(C)C)CC2)ccc1F	-0.7659%	-5.806%
O=C1COc2cc(C(=O)N3CCCC(n4cccn4)C3)ccc2N1 (stereo not shown)	1.673%	-19.81%
O=C(c1ccncc1)N1C[C@@H]2CC[C@H](C1)N(C(=O)C1CCCC1)C2	-0.4754%	10.6%
CN(C)C(=O)Cn1cc(C(=O)NCCc2ccc(Cl)cc2Cl)nn1	4.524%	17.93%
c1ccc(NCc2cnc3n2CCN(CC2CCOC2)CC3)nc1 (stereo not shown)	5.078%	5.712%
CCCOc1cc(CNC(=O)Nc2cccnc2N2CCCC2)ccn1	0.07225%	9.904%
COc1ccc(Cl)cc1CS(=O)(=O)CC(=O)NC(C)CCC(C)C (stereo not shown)	3.121%	0.7732%
Cc1nnc2n1CCN(Cc1csc(-c3ccsc3)n1)C2	4.065%	-10.31%
CN1CCC(c2nnc3ccc(C(=O)N4CCCCC4)cn23)C1 (stereo not shown)	-1.451%	-4.132%
COCc1noc(-c2ccc(N(C)Cc3cn(C)nc3C)nc2)n1	1.434%	-10.36%
CC(=O)N1CCCC(C(=O)N2CCN(c3cnn(C)c(=O)c3)CC2)C1 (stereo not shown)	-3.917%	2.03%
COCC1COCCC12CCN(S(=O)(=O)c1ccccc1C)CC2 (stereo not shown)	0.8264%	-10.49%
CN(C)C(=O)CN1C[C@@H]2CC[C@H](C1)N(C(=O)Cc1ccccc1Cl)C2	-6.391%	-4.355%
c1cncc(CN(CCCn2ccnc2)CC2CCOC2)c1 (stereo not shown)	2.119%	-0.7232%
CS(=O)(=O)NCC1CCCCN1C(=O)c1csc(-c2ccsc2)n1 (stereo not shown)	3.133%	-6.162%
CC(C)(N)C(=O)N1CCCC1c1cncc(Oc2ccccc2)n1 (stereo not shown)	2.285%	23.97%
Cc1nc(N2CCOCC2)nc2c1CCN(Cc1nccn1C)CC2	1.265%	3.819%
COCC(=O)N1CCC2(C1)c1ccccc1S(=O)(=O)N2C (stereo not shown)	-0.008068%	1.226%
Cc1ccccc1CCC(=O)N1CCc2ncnc(NCCO)c2CC1	-0.3106%	-4.243%
CN1CCC(c2ncc3c(n2)CCN(C(=O)CC2C=CCC2)C3)CC1 (stereo not shown)	1.479%	5.254%
CC(C)(C)c1n[nH]c(C2CN(C(=O)C3=COCCC3)CCO2)n1 (stereo not shown)	1.931%	5.196%
Cc1cc(C)c2c(N3CCN(CCN4CCOCC4)CC3)ncnc2n1	4.067%	-14.73%
Cc1cc(N(C)C)nc(C2COCCN2Cc2nccn2C)n1 (stereo not shown)	-0.4525%	-46.46%
O=C(COCC1CCCCO1)N1CCN(Cc2ccccc2F)C(=O)C1 (stereo not shown)	-2.752%	-4.996%